Data reported in the supplement of paper PMC10849652.
The list shows a part of the results.

Sequences of proteins named here, by UniProt entry; tags and fusion partners are left off. A change or cut given only in a name is not applied to a line headed by its entry.
UniProt Q9Y3F4: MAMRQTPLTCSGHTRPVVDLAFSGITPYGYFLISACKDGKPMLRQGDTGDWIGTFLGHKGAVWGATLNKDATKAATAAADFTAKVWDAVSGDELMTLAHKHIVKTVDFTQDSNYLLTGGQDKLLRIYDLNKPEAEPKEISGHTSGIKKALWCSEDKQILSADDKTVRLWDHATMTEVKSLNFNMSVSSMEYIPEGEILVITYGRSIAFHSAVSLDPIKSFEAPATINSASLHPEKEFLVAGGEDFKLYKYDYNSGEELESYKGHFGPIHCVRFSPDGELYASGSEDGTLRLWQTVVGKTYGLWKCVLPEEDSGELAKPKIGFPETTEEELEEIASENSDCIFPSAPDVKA
UniProt Q9UNE7: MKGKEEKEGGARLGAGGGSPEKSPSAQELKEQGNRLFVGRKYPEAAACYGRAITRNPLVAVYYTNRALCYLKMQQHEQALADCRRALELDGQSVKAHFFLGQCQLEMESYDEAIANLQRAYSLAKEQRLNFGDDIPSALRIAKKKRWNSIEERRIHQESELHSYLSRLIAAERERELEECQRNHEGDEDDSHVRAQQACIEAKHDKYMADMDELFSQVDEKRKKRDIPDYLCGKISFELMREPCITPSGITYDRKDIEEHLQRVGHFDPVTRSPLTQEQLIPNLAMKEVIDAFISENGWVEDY
UniProt O94901, whole entry, looked up: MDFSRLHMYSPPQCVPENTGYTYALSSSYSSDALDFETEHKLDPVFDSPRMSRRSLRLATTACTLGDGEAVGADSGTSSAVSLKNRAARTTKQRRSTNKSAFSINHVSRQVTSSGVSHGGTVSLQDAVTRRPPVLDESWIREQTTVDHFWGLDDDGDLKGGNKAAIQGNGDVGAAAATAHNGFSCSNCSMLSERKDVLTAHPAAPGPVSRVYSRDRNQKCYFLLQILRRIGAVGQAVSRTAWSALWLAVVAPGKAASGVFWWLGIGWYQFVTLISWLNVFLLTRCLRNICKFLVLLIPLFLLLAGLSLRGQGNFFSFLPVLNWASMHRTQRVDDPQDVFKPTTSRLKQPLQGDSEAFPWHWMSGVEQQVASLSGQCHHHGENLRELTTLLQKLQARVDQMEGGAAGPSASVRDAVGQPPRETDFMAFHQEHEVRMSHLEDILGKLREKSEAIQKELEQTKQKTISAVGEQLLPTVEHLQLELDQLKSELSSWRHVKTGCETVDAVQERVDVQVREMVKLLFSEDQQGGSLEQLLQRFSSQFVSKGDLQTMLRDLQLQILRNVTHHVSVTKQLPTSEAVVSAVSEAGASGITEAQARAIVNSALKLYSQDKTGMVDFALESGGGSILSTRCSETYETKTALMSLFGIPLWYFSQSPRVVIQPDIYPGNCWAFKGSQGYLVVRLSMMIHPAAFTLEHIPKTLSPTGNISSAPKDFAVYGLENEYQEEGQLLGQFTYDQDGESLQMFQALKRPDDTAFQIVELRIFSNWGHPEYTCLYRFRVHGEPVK
UniProt Q9H2K8: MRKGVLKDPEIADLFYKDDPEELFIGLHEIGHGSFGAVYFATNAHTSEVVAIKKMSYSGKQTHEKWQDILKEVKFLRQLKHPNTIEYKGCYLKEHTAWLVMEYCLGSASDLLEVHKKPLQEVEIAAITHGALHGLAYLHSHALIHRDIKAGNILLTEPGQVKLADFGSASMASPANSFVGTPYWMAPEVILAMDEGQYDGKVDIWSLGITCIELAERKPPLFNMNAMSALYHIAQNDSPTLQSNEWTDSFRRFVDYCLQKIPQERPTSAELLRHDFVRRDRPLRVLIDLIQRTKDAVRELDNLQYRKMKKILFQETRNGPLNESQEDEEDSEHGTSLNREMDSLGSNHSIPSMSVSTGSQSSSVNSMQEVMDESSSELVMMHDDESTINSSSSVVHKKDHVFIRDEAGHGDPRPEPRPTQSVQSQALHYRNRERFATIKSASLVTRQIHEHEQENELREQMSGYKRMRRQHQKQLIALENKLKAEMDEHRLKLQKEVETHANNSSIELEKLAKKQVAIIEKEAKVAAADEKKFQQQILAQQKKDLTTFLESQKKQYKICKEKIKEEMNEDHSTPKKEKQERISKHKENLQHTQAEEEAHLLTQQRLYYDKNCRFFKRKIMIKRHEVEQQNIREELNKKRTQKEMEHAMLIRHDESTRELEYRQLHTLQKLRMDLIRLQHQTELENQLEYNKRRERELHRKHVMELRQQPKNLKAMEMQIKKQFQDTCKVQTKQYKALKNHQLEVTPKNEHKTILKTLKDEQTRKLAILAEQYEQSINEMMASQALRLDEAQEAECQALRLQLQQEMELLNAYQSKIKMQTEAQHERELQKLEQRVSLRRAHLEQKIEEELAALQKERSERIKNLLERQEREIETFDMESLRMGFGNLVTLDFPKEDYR
UniProt P27105: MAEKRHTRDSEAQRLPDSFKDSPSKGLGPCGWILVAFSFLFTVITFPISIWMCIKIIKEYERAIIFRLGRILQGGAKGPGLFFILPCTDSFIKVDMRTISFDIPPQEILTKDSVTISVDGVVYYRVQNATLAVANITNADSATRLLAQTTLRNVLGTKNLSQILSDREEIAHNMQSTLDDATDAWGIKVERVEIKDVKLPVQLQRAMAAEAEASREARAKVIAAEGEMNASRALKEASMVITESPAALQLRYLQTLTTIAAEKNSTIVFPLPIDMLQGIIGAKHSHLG
UniProt Q9NVG8: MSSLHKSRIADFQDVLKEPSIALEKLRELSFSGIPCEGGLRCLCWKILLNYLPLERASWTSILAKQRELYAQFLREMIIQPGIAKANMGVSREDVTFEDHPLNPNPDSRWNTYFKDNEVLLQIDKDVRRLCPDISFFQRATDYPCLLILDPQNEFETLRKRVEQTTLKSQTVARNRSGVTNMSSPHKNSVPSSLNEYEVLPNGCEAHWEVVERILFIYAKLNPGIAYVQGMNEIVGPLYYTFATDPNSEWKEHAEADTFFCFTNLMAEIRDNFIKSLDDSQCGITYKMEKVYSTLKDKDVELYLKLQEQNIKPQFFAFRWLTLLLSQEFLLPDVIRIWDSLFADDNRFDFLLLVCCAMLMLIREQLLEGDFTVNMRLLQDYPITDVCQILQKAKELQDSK
UniProt O15533, whole entry, looked up: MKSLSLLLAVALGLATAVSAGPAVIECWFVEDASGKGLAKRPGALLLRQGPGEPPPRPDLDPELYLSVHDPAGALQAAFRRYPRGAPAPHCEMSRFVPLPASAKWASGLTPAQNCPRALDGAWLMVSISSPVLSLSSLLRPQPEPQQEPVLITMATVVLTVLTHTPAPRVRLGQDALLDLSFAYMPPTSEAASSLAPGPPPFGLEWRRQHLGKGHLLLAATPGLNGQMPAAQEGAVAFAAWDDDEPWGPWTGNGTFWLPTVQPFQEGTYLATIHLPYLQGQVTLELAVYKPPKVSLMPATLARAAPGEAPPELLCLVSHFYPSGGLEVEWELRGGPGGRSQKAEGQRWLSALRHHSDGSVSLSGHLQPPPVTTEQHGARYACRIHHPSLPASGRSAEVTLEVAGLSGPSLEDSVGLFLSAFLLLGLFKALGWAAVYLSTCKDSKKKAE
UniProt O00268, whole entry, looked up: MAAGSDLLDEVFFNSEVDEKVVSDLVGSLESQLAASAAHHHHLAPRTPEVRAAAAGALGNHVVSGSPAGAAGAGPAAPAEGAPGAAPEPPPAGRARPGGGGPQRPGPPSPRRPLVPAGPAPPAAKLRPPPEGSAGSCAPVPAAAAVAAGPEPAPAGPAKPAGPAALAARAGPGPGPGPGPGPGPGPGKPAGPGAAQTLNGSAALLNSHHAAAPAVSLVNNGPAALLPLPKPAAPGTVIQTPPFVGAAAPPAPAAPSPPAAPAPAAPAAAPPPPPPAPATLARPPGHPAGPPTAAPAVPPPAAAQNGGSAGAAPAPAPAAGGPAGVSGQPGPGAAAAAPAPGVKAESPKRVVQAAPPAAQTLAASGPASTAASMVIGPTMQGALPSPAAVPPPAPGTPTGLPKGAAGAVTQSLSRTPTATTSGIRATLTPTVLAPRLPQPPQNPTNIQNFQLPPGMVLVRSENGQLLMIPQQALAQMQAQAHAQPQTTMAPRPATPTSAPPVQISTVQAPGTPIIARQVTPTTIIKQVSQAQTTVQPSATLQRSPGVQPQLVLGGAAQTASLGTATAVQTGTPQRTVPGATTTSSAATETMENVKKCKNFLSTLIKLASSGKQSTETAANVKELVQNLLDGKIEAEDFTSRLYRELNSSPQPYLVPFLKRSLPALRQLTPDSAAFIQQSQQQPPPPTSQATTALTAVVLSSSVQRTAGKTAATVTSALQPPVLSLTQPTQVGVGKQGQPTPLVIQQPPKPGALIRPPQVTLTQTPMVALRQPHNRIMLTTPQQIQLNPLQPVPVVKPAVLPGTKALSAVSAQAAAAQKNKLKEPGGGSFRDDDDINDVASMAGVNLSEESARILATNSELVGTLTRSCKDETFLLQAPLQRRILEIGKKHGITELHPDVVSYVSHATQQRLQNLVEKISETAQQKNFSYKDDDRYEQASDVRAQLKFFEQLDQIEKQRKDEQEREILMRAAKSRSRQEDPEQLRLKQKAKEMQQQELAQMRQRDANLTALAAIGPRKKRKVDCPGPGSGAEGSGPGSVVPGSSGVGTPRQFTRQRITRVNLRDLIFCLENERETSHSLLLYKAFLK
UniProt P50225: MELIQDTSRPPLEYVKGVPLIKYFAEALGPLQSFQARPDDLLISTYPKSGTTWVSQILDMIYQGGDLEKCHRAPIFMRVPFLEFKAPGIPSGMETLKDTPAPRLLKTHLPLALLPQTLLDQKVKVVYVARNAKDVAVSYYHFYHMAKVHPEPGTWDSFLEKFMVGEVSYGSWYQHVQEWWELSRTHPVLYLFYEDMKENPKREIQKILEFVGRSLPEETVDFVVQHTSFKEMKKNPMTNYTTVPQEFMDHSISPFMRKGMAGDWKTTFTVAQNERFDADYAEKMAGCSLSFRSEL
UniProt Q8NHG7: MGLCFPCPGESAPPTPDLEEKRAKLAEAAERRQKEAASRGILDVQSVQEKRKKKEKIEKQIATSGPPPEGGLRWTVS
UniProt Q15526: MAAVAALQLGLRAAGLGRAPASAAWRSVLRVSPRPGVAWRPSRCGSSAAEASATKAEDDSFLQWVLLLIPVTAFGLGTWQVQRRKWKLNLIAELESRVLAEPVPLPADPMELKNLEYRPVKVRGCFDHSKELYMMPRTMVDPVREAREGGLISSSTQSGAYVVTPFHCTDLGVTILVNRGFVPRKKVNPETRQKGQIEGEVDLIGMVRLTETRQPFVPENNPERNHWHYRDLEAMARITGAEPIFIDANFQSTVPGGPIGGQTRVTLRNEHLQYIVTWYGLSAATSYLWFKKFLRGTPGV
UniProt P55854, whole entry, looked up: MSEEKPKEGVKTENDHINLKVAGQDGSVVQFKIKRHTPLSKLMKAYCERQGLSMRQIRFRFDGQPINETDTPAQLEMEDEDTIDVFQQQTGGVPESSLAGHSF
UniProt O60499: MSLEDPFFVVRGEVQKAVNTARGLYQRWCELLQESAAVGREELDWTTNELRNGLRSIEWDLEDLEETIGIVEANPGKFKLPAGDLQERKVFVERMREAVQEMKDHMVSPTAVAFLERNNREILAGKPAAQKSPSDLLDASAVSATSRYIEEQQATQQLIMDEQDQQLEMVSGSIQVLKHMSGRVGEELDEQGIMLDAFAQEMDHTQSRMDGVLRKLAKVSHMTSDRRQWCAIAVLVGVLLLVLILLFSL
UniProt Q7L7X3: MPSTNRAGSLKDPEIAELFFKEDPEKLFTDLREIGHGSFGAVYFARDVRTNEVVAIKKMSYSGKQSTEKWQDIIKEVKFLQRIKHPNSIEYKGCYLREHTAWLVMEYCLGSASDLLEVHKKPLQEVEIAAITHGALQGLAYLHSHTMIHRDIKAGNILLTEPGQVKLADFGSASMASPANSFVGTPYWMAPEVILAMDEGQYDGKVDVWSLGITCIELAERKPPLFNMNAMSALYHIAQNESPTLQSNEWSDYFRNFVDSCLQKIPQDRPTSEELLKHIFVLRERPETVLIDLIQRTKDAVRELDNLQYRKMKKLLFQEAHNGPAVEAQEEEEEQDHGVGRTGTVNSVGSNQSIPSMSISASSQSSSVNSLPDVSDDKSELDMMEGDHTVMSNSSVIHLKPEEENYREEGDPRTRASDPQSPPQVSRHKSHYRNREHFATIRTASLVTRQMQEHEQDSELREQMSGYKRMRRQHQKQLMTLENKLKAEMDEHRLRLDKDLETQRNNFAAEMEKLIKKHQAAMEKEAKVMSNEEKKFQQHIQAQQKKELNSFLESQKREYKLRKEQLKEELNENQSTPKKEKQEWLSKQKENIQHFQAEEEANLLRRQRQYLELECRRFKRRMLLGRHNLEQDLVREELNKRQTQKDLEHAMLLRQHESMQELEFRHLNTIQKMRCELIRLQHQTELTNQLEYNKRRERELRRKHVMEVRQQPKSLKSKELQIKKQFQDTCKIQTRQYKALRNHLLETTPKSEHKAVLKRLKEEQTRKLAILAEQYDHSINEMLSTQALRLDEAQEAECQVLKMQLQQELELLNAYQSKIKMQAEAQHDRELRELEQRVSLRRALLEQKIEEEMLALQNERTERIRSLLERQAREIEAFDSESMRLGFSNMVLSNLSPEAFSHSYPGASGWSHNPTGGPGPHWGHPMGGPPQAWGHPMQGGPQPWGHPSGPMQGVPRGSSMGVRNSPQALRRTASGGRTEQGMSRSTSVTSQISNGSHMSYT

Tests used:
Assay in all cases: log2 fold change, soluble protein after heating vs DMSO (PISA); higher = thermal stabilisation; K562 cells, 10 uM, 30 min; active = over 0.2 and 3.5 SD of the protein, either way, in both replicates (recomputed)
[1] = compound: CC1=C(C=C(C=C1)NC(=O)C2=CC(=CC=C2)C(C)(C)C#N)NC3=CC4=C(C=C3)N=CN(C4=O)C
How it was run: (§1)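 K562 cells at 2×10^6 cells/mL were exposed to 10 μM compound for 30 min, then aliquots were heated for 3 min across 48°C-58°C, pooled, and extracted in PBS containing 0.5% NP-40 at 4°C. The supernatant after 21,000xg for 90 min was taken as soluble protein and measured by TMTpro 16plex LC-MS/MS with channel sums equalised. Thermal stability is reported relative to control samples, with values from duplicates. Fold changes are given on a log2 scale.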

[2] = compound: CC1=C(C=C(C=C1)NC(=O)C2=CC(=CC=C2)N(C)C)NC(=O)C3=CC=C(C=C3)O
How it was run: as §1

[3] = compound: CC1=CC=C(C=C1)SC2=C3C=C(SC3=CN=C2)C(=O)N
How it was run: as §1

[4] = compound: CC1=NC(=CC=C1)C2=C(N=C(N2)C(C)(C)C)C3=CC4=NC=CN=C4C=C3
How it was run: as §1

[5] = compound: CCCCN(Cc1ccc(C(=O)NO)cc1)C(=O)Nc1ccccc1 [Nexturastat A]
How it was run: as §1

[6] = compound: CCCS(=O)(=O)Nc1ccc(F)c(C(=O)c2c[nH]c3ncc(-c4ccc(Cl)cc4)cc23)c1F [vemurafenib]
How it was run: as §1

[7] = compound: CCCS(=O)(=O)Nc1ccc(F)c(C(=O)c2c[nH]c3ncc(Cl)cc23)c1F
How it was run: as §1

[8] = compound: CCCc1cc(C)[nH]c(=O)c1CNC(=O)c1cc(-c2ccnc(N3CCN(C)CC3)c2)cc2c1cnn2C(C)C
How it was run: as §1

[9] = compound: CCN(CC)Cc1ccc2cc(COC(=O)Nc3ccc(C(=O)NO)cc3)ccc2c1 [givinostat]
How it was run: as §1

[10] = compound: CCN(CCCOc1ccc2c(Nc3cc(CC(=O)Nc4cccc(F)c4)[nH]n3)ncnc2c1)CCOP(=O)(O)O [barasertib]
How it was run: as §1

Measured: log2 fold change

STRAP isoform 2 (UniProt Q9Y3F4)
inactive: [1] 0.011 | [2] 0.013 | [3] 0.008 | [4] 0.001 | [5] -0.019 | [6] -0.016 | [7] 0.007 | [8] -0.023 | [9] -0.051 | [10] -0.023

STUB1 (UniProt Q9UNE7)
inactive: [1] -0.007 | [2] 0.11 | [3] -0.035 | [4] -0.076 | [5] 0.3 | [6] 0.035 | [7] -0.029 | [8] 0.061 | [9] 0.05 | [10] 0.002

STT3A (UniProt P46977)
inactive: [1] -0.012 | [2] 0.021 | [3] -0.026 | [4] -0.009 | [5] -0.127 | [6] -0.022 | [7] 0.015 | [8] 0.012 | [9] -0.039 | [10] -0.005

STX3 (UniProt Q13277)
inactive: [1] 0.044 | [2] 0.025 | [3] 0.036 | [4] 0.016 | [5] 0.039 | [6] 0.071 | [7] 0.079 | [8] 0.143 | [9] -0.025 | [10] 0.01

STRIP1 (UniProt Q5VSL9)
inactive: [1] 0.076 | [2] -0.009 | [3] 0.06 | [4] -0.012 | [5] -0.023 | [6] 0.066 | [7] 0.116 | [8] 0.129 | [9] -0.087 | [10] 0.02

SUN1 isoform 9 (UniProt O94901)
inactive: [1] -0.164 | [2] 0.047 | [3] 0.029 | [4] 0.04 | [5] 0.11 | [6] -0.21 | [7] -0.005 | [8] 0.037 | [9] 0.078

STRADA (UniProt Q7RTN6)
inactive: [1] 0.037 | [2] -0.012 | [3] -0.067 | [4] 0.006 | [5] -0.103 | [6] -0.02 | [7] -0.021 | [8] -0.005 | [9] 0.02 | [10] -0.023

STXBP2 isoform 3 (UniProt Q15833)
inactive: [1] 0 | [2] -0.042 | [3] 0.036 | [4] -0.017 | [5] 0.128 | [6] 0.155 | [7] 0.032 | [8] 0.063 | [9] 0.125 | [10] 0.068

SUPV3L1 (UniProt Q8IYB8)
inactive: [1] 0.022 | [2] 0.012 | [3] 0.008 | [4] 0.067 | [5] -0.094 | [6] 0.018 | [7] 0.016 | [8] -0.035 | [9] 0 | [10] 0.028

SYNJ2BP-COX16, A0A087WYV9
inactive: [1] 0.036 | [2] -0.028 | [3] -0.078 | [4] -0.034 | [5] 0.083 | [6] 0.004 | [7] -0.006 | [8] -0.028 | [9] -0.054 | [10] -0.024

STK39 (UniProt Q9UEW8)
inactive: [1] -0.049 | [2] 0.006 | [3] -0.016 | [4] 0.033 | [5] 0.018 | [6] 0.015 | [7] 0.032 | [8] 0.053 | [9] 0.033 | [10] 0.033

TAOK3 (UniProt Q9H2K8)
inactive: [1] 0.028 | [2] -0.031 | [3] 0.078 | [4] 0.059 | [5] -0.054 | [6] 0.092 | [7] 0.115 | [8] 0 | [9] -0.019 | [10] 0.027

STOM (UniProt P27105)
inactive: [1] -0.035 | [2] 0.025 | [3] -0.041 | [4] -0.002 | [5] 0.007 | [6] 0.01 | [7] -0.053 | [8] -0.092 | [9] 0.005 | [10] -0.017

TBC1D13 (UniProt Q9NVG8)
inactive: [1] -0.027 | [2] 0.018 | [3] 0.009 | [4] -0.017 | [5] 0.02 | [6] 0.004 | [7] 0.016 | [8] -0.028 | [9] 0.014 | [10] 0.013

TAPBP isoform 3 (UniProt O15533)
inactive: [1] 0.129 | [2] -0.116 | [3] 0.034 | [4] 0.319 | [5] 0.013 | [6] -0.035 | [7] 0.189 | [8] 0.153 | [9] 0.051 | [10] 0.041

TAF4 (UniProt O00268)
inactive: [1] 0.019 | [2] 0.022 | [3] 0.088 | [4] 0.024 | [5] -0.143 | [6] -0.054 | [7] 0.027 | [8] 0.04 | [9] 0.031 | [10] 0.03

STXBP5 (UniProt Q5T5C0)
inactive: [1] -0.021 | [2] -0.041 | [3] -0.007 | [4] -0.006 | [5] -0.002 | [6] -0.038 | [7] 0.013 | [8] -0.006 | [9] 0.022 | [10] -0.004

SULT1A1 (UniProt P50225)
inactive: [1] 0.015 | [2] 0.162 | [3] -0.022 | [4] 0.025 | [5] -0.023 | [6] 0.135 | [7] 0.037 | [8] 0.092 | [9] 0.044 | [10] 0.068

TADA3 (UniProt O75528)
inactive: [1] -0.037 | [2] -0.054 | [3] 0.034 | [4] -0.041 | [5] -0.027 | [6] 0.069 | [7] -0.01 | [8] -0.048 | [9] 0.041 | [10] 0.023

TAB1 (UniProt Q15750)
inactive: [1] 0.073 | [2] -0.082 | [3] 0.057 | [4] 0.027 | [5] 0.122 | [6] 0.08 | [7] 0.045 | [8] 0.058 | [9] 0.083 | [10] 0.128

SYF2 (UniProt O95926)
inactive: [1] 0.03 | [2] 0.049 | [3] -0.063 | [4] -0.133 | [5] -0.015 | [6] -0.071 | [7] -0.134 | [8] -0.008 | [9] 0.031 | [10] -0.083

SVIP (UniProt Q8NHG7)
inactive: [1] 0.026 | [2] -0.029 | [3] 0 | [4] 0.001 | [5] -0.005 | [6] 0.012 | [7] -0.096 | [8] -0.011 | [9] -0.054 | [10] -0.023

SURF1 (UniProt Q15526)
inactive: [1] 0.045 | [2] -0.008 | [3] -0.019 | [4] 0.087 | [5] -0.033 | [6] 0.042 | [7] 0.124 | [8] -0.01 | [9] -0.01 | [10] 0.027

SUMO3 isoform 2 (UniProt P55854)
inactive: [1] -0.097 | [2] 0.062 | [3] -0.028 | [4] -0.09 | [5] 0.075 | [6] -0.07 | [7] -0.039 | [8] -0.014 | [9] -0.038 | [10] -0.079

SUB1 (UniProt P53999)
inactive: [1] -0.024 | [2] 0.016 | [3] -0.016 | [4] -0.029 | [5] -0.007 | [6] 0.005 | [7] -0.035 | [8] 0.05 | [9] -0.009 | [10] 0.014

STX10 (UniProt O60499)
inactive: [1] -0.087 | [2] 0.007 | [3] 0.051 | [4] 0.087 | [5] -0.019 | [6] -0.038 | [7] 0.01 | [8] -0.005 | [9] 0.012 | [10] 0.272

Two consecutive entries out of the list so far:
STOM (UniProt P27105)
inactive: [1] -0.035 | [2] 0.025 | [3] -0.041 | [4] -0.002 | [5] 0.007 | [6] 0.01 | [7] -0.053 | [8] -0.092 | [9] 0.005 | [10] -0.017

TBC1D13 (UniProt Q9NVG8)
inactive: [1] -0.027 | [2] 0.018 | [3] 0.009 | [4] -0.017 | [5] 0.02 | [6] 0.004 | [7] 0.016 | [8] -0.028 | [9] 0.014 | [10] 0.013

Next results.

TAL1 (UniProt P17542)
inactive: [1] -0.029 | [2] 0.011 | [3] 0.019 | [4] 0.014 | [5] -0.094 | [6] -0.011 | [7] -0.02 | [8] -0.025 | [9] 0.021 | [10] -0.049

SWAP70 (UniProt Q9UH65)
inactive: [1] -0.012 | [2] -0.013 | [3] 0.025 | [4] 0.03 | [5] -0.06 | [6] 0 | [7] 0.021 | [8] -0.002 | [9] -0.019 | [10] -0.014

STOML2 (UniProt Q9UJZ1)
inactive: [1] 0.023 | [2] -0.01 | [3] -0.04 | [4] 0.028 | [5] 0.027 | [6] -0.008 | [7] -0.049 | [8] -0.01 | [9] -0.006 | [10] -0.002

TAOK1 (UniProt Q7L7X3)
inactive: [1] -0.009 | [2] 0.007 | [3] -0.005 | [4] -0.013 | [5] 0.065 | [6] 0.023 | [7] 0.011 | [8] -0.048 | [9] 0.001 | [10] 0.009
